The data set in a line: Phenethylamine in tissues of colonized mice by ESI-QQQ-MS/MS. The class given is in vivo, C57Bl/6 mice.

Take `NNCCc1ccccc1` [phenelzine]: the “phenethylamine in the colon, serum and brains” value (M. morganii monocolonized mice treated with phenelzine) is “elevated levels”. In addition, the colonic phenethylamine result (germ-free mice and mice colonized with B. theta, treated with MAOI) is “undetectable”.

The record behind these values is patent publication US20230043198A1, “MICROBIOTA METABOLITES THAT SHAPE HOST PHYSIOLOGY” (Yale University, priority 2018, published 2023).
